Measurements published in PMC8839947.
Negatives hold for the conditions tested. At least one verdict was read from the data and is not stated in words by the source.

Molecular target: human serum albumin (HSA) (Homo sapiens) (UniProt P02768)
Experiment: square-wave voltammetry (interference)
Conditions: 100 pM HSA together with 100 pM HIgG in presence of 10 pM CRP, no interference; 5'-NH2-(CH2)6; CRP incubation in 0.1 M Tris pH 7.4, 2 mM CaCl2, 60 min; SWV read-out in PBS (0.1 M, pH 7.4); BSA-blocked electrode; commercial protein

“GCCUGUAAGGUGGUCGGUGUGGCGAGUGUGUUAGGAGAGAUUGC [CRP RNA aptamer (5'-amino)]”: no binding.
